Experimental data from article PMC9927933.
No constants are given. Whether binding was seen depends on the method and setting. In cells and extracts the contact can be indirect. A result given as binding can be weak or reduced; the word gives no strength.

Amino acid sequences for entries named in this document (tags omitted). A change or cut given only in a name is not applied to a line headed by its entry.
UniProt Q9UM11: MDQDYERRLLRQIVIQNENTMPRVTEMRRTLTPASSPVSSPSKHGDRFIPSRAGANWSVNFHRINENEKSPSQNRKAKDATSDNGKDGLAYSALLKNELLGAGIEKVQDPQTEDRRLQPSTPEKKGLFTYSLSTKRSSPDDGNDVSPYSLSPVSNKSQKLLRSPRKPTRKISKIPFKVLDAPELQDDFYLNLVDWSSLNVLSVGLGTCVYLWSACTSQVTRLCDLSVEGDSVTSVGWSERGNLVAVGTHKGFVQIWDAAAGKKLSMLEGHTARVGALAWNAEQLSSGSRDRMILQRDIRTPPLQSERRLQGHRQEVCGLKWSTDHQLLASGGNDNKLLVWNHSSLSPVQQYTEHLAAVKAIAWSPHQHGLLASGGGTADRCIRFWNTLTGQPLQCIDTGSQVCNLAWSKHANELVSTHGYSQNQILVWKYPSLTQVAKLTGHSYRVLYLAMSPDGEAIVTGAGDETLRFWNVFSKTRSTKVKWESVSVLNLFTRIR
UniProt Q8TB45: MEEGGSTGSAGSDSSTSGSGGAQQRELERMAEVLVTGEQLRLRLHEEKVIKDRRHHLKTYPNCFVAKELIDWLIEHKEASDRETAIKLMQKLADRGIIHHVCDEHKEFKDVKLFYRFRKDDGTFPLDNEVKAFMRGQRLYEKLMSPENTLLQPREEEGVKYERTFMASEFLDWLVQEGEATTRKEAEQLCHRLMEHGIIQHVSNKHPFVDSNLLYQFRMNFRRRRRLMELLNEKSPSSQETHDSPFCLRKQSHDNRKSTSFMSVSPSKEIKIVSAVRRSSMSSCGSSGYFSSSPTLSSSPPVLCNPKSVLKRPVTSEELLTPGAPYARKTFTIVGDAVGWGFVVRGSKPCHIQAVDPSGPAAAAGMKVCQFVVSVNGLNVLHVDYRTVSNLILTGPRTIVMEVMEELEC

These substances were tested against CDH1 (UniProt Q9UM11) (assay: co-IP; HEK293 cells transfected with indicated plasmids, pulled down with anti-FLAG beads, immunoblot (Figure 5E); IP lysis buffer 50 mM Tris-HCl pH 8.0, 120 mM NaCl, 1% Triton X-100, 1 mM EDTA, overnight at 4°C).

| Substance | binding |
| --- | --- |
| DEPTOR MT1 (AXXA double mutant of D-box D1) (from UniProt Q8TB45) | binds |
| DEPTOR MT2 (AXXA double mutant of D-box D2) (from UniProt Q8TB45) | binds |
| DEPTOR MT3 (AXXA double mutant of D-box D3) (from UniProt Q8TB45) | no binding |
